Results: PMC3778944
The exact form of at least one protein or probe is not confirmed. At least one verdict rests on a figure or table, not on a statement of the authors.

Amino acid sequences for entries named in this document (tags omitted).
UniProt Q9NUW8, whole entry: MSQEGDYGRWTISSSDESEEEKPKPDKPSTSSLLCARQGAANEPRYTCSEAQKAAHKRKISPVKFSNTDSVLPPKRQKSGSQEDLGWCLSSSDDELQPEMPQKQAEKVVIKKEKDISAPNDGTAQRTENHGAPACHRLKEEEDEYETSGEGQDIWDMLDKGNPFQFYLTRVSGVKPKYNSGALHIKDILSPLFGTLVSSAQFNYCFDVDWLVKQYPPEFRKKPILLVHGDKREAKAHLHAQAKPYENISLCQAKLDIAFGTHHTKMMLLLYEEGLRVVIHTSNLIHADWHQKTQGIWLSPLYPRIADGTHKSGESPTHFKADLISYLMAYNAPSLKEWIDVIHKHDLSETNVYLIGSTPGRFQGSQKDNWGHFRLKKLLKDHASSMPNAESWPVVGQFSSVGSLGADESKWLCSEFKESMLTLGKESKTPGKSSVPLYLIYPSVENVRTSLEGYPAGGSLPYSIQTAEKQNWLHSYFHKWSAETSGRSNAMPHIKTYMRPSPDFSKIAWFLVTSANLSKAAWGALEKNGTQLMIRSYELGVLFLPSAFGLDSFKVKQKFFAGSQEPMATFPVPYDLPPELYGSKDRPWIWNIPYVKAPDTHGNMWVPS

Target: Tdp1 wild-type (human) (UniProt Q9NUW8)
Assay: EMSA
Settings: 1-10 nM Tdp1, on ice, made by UDG, 50 mM Tris-HCl pH 7.5, 50 mM KCl, 10 nM 5'-32P DNA, UDG pretreatment (0.5 U/ul, 15 min, 37 C), complexes formed on ice, 5% native PAGE in TBE at 4 C, recombinant protein, protein details: Ni-chelating resin purification (His tag implied)

Sequence | binding result (AP site at the U (position 25), label: 5'-32P, single-stranded DNA) | binding result (AP site at the U of strand 1 (position 25), label: 5'-32P (strand 1))
CTATGGCGAGGCGATTAAGTTGGGUACGTCAGGGTCTTCCGAACGAC [ssAP-DNA] | binds | 
CTATGGCGAGGCGATTAAGTTGGGUACGTCAGGGTCTTCCGAACGAC / GTCGTTCGGAAGACCCTGACGTTGCCCAACTTAATCGCCTCGCCATAG [dsAP-DNA] |  | binds
